Results are given in words; binding and its absence hold for the method and conditions named. Binding seen in cells or lysates may run through a third protein. Some entries that bind do so weakly or less than the wild type.
Target: Notch1 receptor (human (endogenous in MHCC-97 H and SNU-398)) (UniProt P46531)
Assay: co-IP; MHCC-97 H and SNU-398 cells incubated with CAF-EVs for 24 h, lysed with RIPA buffer; extracts incubated with CTGF or Notch1 antibodies overnight at 4 °C, Protein A/G PLUS-Agarose 4 h at 4 °C; immunoblot with anti-CTGF or anti-Notch1 (reciprocal)

Protein sequences, listed by entry. Tags and fused reporters are not part of them. Residues count along the entry.
UniProt P46531, residues 19-2555: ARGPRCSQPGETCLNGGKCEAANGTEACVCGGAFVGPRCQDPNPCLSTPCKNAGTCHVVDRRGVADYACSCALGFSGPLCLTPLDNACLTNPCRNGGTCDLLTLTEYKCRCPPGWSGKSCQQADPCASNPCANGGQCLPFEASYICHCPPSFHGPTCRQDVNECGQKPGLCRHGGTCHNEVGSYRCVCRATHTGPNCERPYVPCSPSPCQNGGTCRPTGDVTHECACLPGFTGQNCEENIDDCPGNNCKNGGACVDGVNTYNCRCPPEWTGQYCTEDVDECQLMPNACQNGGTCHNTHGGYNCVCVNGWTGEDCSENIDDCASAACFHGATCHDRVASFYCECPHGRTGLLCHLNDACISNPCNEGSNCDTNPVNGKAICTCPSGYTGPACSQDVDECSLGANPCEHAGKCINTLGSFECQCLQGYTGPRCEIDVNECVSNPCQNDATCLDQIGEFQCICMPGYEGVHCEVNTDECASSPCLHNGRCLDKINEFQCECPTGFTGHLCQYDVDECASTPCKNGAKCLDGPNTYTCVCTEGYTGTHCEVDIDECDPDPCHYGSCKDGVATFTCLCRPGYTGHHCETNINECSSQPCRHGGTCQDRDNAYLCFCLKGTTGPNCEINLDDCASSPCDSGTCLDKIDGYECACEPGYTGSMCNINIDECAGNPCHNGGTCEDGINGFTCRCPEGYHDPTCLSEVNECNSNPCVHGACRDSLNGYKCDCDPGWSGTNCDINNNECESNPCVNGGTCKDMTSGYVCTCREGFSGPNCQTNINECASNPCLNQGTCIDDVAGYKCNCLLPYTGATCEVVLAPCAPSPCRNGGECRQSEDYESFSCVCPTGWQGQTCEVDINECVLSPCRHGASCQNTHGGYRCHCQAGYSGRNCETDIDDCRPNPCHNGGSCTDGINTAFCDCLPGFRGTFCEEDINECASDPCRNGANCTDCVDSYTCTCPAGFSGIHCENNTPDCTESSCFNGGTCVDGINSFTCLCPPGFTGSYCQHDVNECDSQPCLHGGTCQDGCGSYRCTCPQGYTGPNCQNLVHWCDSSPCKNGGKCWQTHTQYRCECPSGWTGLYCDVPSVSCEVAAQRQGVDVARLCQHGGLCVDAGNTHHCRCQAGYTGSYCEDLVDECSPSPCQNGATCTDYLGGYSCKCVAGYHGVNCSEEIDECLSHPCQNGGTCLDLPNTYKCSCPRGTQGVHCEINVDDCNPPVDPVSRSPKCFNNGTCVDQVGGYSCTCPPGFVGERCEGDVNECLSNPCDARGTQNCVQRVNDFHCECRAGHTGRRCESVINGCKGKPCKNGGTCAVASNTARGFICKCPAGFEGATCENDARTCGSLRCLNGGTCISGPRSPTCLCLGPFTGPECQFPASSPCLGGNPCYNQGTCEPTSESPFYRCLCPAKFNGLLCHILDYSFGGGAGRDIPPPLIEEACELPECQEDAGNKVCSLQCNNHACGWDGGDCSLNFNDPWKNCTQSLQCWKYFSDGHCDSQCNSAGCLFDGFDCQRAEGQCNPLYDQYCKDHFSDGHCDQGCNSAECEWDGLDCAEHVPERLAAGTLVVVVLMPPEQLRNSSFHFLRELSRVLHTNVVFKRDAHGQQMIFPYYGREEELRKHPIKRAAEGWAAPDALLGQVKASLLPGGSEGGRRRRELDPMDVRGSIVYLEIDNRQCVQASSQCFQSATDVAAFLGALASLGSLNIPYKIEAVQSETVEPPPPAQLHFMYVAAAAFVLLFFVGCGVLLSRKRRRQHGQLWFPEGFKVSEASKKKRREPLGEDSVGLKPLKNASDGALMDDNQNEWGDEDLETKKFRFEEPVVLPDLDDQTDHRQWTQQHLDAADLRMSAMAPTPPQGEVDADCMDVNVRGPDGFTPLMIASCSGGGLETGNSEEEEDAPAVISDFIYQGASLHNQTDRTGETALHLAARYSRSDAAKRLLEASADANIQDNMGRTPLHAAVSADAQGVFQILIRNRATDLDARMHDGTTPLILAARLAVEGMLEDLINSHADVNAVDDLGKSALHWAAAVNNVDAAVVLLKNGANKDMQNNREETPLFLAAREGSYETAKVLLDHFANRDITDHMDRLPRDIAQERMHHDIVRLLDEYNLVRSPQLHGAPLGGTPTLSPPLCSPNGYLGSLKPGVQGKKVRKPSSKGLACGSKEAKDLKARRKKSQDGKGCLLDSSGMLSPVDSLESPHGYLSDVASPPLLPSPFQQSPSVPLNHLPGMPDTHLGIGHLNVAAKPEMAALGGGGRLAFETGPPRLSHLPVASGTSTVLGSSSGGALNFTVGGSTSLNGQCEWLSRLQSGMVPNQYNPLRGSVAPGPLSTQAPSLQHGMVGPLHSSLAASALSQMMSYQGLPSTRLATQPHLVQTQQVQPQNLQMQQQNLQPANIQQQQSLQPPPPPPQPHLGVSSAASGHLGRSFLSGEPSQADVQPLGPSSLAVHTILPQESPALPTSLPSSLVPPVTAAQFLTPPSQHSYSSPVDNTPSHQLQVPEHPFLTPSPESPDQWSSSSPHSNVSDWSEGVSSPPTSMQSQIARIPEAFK
UniProt P29279, residues 27-349: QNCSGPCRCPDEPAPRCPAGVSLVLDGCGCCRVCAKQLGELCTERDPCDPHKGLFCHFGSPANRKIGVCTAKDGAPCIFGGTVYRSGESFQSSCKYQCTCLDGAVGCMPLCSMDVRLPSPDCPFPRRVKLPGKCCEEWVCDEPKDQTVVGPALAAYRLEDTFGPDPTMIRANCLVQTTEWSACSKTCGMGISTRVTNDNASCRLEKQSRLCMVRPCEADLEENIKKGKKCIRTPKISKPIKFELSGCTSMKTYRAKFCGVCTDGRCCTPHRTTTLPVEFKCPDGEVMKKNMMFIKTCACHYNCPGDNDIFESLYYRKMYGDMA

Substance: Connective tissue growth factor (CTGF) (from UniProt P29279 27-349)
- binding: binds
